# Measured values published in PubChem BioAssay AID2685 (National Center for Advancing Translational Sciences (NCATS), 2010).
# This is one part of the list. Further columns of the screen follow, without active or inactive calls. The list favours compounds with an active or inconclusive main result. Potencies come from curve fits of mixed quality, noted in brackets.
# Assay: qHTS Assay for Lipid Storage Modulators in Drosophila S3 Cells;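 as to cell number change: cells counted by Cell Tracker Red CMTPX staining in the red channel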
# Details: BODIPY lipid droplet fluorescence, 18-24 h; for cell number change: measured here: cell count max response, cells fed with added oleic acid
# How it was run: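 Drosophila S3 cells got compounds at several concentrations plus oleic acid (400 uM solution). Laser-scanning cytometry with 488 nm excitation read lipid droplets at 500-530 nm and cells at 575-640 nm. Percent activity was relative to 20 uM Triacsin C.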
# [1] = measured here: lipid fluorescence (Fed channel) AC50, cells fed with added oleic acid
# [2] = measured here: cell number channel AC50, cells fed with added oleic acid
smiles,measurement,setting,value
CCC(C(=O)NC1CCCC1)N(C(=O)c1snc(C(N)=O)c1N)c1ccc(OC)c(OC)c1 (stereo not drawn),cell number change,,5.56%
same,AC50,[1],"5.17 µM [falling, full curve]"
Cc1ccc(Oc2ccc(Cl)cc2NC(=O)c2ccc(F)cc2F)cc1,cell number change,,14.9%
same,AC50,[1],"29.1 µM [rising, single point]"
CCCNS(=O)(=O)c1ccc(OC)c(Cl)c1Cl,cell number change,,27.3%
COc1ccc(NC(=S)N2CCc3ccccc3C2)cc1OC,cell number change,,37.2%
CCOc1ncccc1C(=O)Nc1nc(SC)ns1,cell number change,,96.2%
same,AC50,[2],"4.61 µM [rising, full curve]"
same,AC50,[1],"0.291 µM [rising, single point]"
O=[N+]([O-])c1cccc(C2NCC(c3ccccc3Cl)c3c2[nH]c2ccccc32)c1 (stereo not drawn),cell number change,,61.7%
CCCCCCCC[n+]1cccc2c3ccccc3ccc21,cell number change,,-46.9%
same,AC50,[2],"5.17 µM [falling, full curve]"
same,AC50,[1],"3.66 µM [falling, full curve]"
CC(=O)c1c(C)[nH]c(C(=O)NCc2ccc(F)cc2)c1C,cell number change,,27.7%
O=c1oc(C2(O)CCCCC2)cc2ccc(/C=C/c3ccc(F)cc3)cc12,cell number change,,0.388%
same,AC50,[2],"0.13 µM [falling, single point]"
O=C(NCC(c1cccs1)N1CCOCC1)c1cc(-c2ccc(F)cc2)nc2ccccc12 (stereo not drawn),cell number change,,44.3%
same,AC50,[2],"1.3 µM [rising, full curve]"
COc1ccccc1CNC(=O)C1Cc2ccccc2C(=O)O1 (stereo not drawn),cell number change,,161%
Cc1ccc(-n2ncc3c2ncn2c(-c4ccncc4)nnc32)cc1,cell number change,,10.1%
CCOc1ccc(NS(=O)(=O)c2cc(Cl)ccc2OC)cc1,cell number change,,-89.2%
same,AC50,[2],"23.1 µM [falling, partial curve]"
same,AC50,[1],"25.9 µM [falling, partial curve]"
N#CNC(N)=Nc1cccc(Cl)c1,cell number change,,20.3%
Cn1c(=O)oc2cc(S(=O)(=O)NC(Cc3ccccc3)C(=O)N3CCCCC3)ccc21 (stereo not drawn),cell number change,,2.53%
same,AC50,[1],"14.6 µM [falling, partial curve]"
O=C(NC(=S)Nc1ncccn1)c1ccc(F)cc1,cell number change,,-15.8%
O=C(N/N=C/c1cn(-c2cccs2)nc1-c1ccccc1)c1ccccc1Cl,cell number change,,24.5%
same,AC50,[1],"29.1 µM [rising, single point]"
Cc1cccc(C(=O)Nc2sc3c(c2C(=O)O)CCCC3)c1,cell number change,,-39.4%
same,AC50,[2],"29.1 µM [falling, single point]"
OC(COc1ccc(F)cc1Cl)CN1CCc2ccccc2C1 (stereo not drawn),cell number change,,-15.2%
same,AC50,[1],"6.51 µM [falling, single point]"
CC1CC(C)CN(C(=O)c2cn(C)c3ccc(S(=O)(=O)N(C)C)cc3c2=O)C1 (stereo not drawn),cell number change,,48.4%
same,AC50,[2],"0.13 µM [rising, full curve]"
same,AC50,[1],"0.259 µM [rising, full curve]"
Clc1ccccc1CN(Cc1ccccc1)c1ncnc2nc[nH]c12,AC50,[1],"1.3 µM [falling, full curve]"
CCc1nn2c(=O)cc(COc3ccc(NC(=O)c4ccco4)cc3)nc2s1,cell number change,,-35.9%
same,AC50,[2],"29.1 µM [falling, single point]"
COc1ccc(NC(C)=O)cc1S(=O)(=O)NCCc1ccccn1,cell number change,,-4.65%
same,AC50,[1],"6.51 µM [rising, partial curve, poor fit]"
COc1ccc(/C=N/Nc2nnc(C)n2N)cc1OC,cell number change,,12.1%
same,AC50,[1],"0.92 µM [rising, full curve, poor fit]"
COc1cc(C)nc(OCCNS(=O)(=O)c2cc(C)ccc2C)n1,cell number change,,45.7%
same,AC50,[2],"2.91 µM [rising, partial curve]"
same,AC50,[1],"1.64 µM [rising, partial curve]"
COc1ccc(C)cc1NC(=O)CSc1nc2ccccc2nc1N1CC(C)OC(C)C1 (stereo not drawn),cell number change,,10.1%
same,AC50,[1],"0.58 µM [rising, full curve, poor fit]"
COCCN(CCOC)C(=O)CN1C(=O)NC(Cc2c[nH]c3ccccc23)C1=O (stereo not drawn),AC50,[2],"6.51 µM [rising, partial curve, poor fit]"
COc1cc(Br)cc(/C=N/NC(=O)Cc2ccc(C(F)(F)F)cc2[N+](=O)[O-])c1O,cell number change,,-6.3%
same,AC50,[1],"23.1 µM [falling, single point]"
COc1cc(NC(=O)c2cccs2)c(OC)cc1NC(=O)Nc1ccc(F)cc1,cell number change,,-20.7%
O=C(NCCCNC(=O)c1ccco1)c1ccc(F)cc1,cell number change,,-6.25%
same,AC50,[1],"0.291 µM [falling, partial curve]"
CCCOc1ccc(CNC(=O)Cn2c(=O)oc3ccccc32)cc1,cell number change,,-15.2%
NC(=O)NC(=O)COC(=O)c1ccc2noc(-c3ccccc3)c2c1,cell number change,,105%
same,AC50,[2],"23.1 µM [rising, partial curve, poor fit]"
O=C(O)CSc1ccccc1C(=O)O,cell number change,,-104%
same,AC50,[2],"14.6 µM [falling, partial curve, poor fit]"
same,AC50,[1],"0.13 µM [falling, full curve, poor fit]"
O=C(NCC(=O)N1CCCC1)c1ccc(Br)cc1,cell number change,,4.76%
NC(=O)CC(NC(=O)Cc1cccc2ccccc12)c1ccc(N2CCC(N3CCCC3)CC2)c([N+](=O)[O-])c1 (stereo not drawn),cell number change,,-11.1%
Cn1cc(CN2CCCCC2c2ccccn2)c(-c2ccc3c(c2)OCCO3)n1 (stereo not drawn),cell number change,,24.3%
Cc1ccccc1-n1ncc2c1CC(C)(C)CC2NC(=O)c1ccncc1 (stereo not drawn),cell number change,,17%
same,AC50,[1],"20.6 µM [rising, single point]"
CCOC(=O)N1CCC(N2C(=O)c3ccccc3C2Nc2c(C)cccc2C)CC1 (stereo not drawn),cell number change,,-5.28%
same,AC50,[1],"2.31 µM [rising, single point]"
COC(=O)c1ccc(CNC(=O)c2ccc(OCC(=O)N3CCOCC3)c(OC)c2)cc1,cell number change,,7.38%
CCCCC(C(=O)NC1CCCC1)N(C(=O)c1snc(C(N)=O)c1N)c1ccc(OCC)cc1 (stereo not drawn),cell number change,,-14.7%
COc1cc(NC(=O)Cn2cnc(S(=O)(=O)N3CCCCC3)c2)cc(OC)c1OC,cell number change,,15%
same,AC50,[1],"29.1 µM [rising, single point]"
O=C1CC(O)(C(F)F)Oc2ccc3ccccc3c21 (stereo not drawn),cell number change,,46.1%
same,AC50,[2],"13 µM [rising, partial curve, poor fit]"
same,AC50,[1],"7.31 µM [rising, partial curve]"
COc1cc(C(=O)NNC(=O)C2CCCC2)cc(OC)c1OC,cell number change,,11.5%
COc1cccc(CNC(=O)COC(=O)/C(C#N)=C/c2ccc(N(C)C)cc2)c1,cell number change,,-19.4%
same,AC50,[2],"3.66 µM [falling, partial curve, poor fit]"
CSC1=NSC2=NC(=O)/C(=C/c3coc4ccccc4c3=O)C(=N)N12,cell number change,,-38.9%
same,AC50,[2],"23.1 µM [falling, single point]"
same,AC50,[1],"29.1 µM [falling, partial curve, poor fit]"
O=C(c1ccccc1F)N(Cc1cccnc1)Cc1cc2cc3c(cc2[nH]c1=O)OCCO3,cell number change,,49.8%
same,AC50,[2],"0.651 µM [rising, partial curve, poor fit]"
same,AC50,[1],"18.4 µM [rising, single point]"
O=C(NCc1ccccn1)Nc1ccccc1C(F)(F)F,cell number change,,-11.9%
same,AC50,[2],"0.58 µM [falling, partial curve, poor fit]"
CCOC(=O)C1CCN(CC(=O)Nc2cc(S(=O)(=O)N3CCOCC3)ccc2C)CC1,cell number change,,67.6%
same,AC50,[2],"4.11 µM [rising, single point]"
COc1ccc(CCNC(=O)c2c(C)nn(-c3ccccc3)c2Cl)cc1OC,cell number change,,4.78%
same,AC50,[1],"6.51 µM [rising, single point]"
O=C(CSc1nnc(-c2ccncc2)o1)c1cccc([N+](=O)[O-])c1,cell number change,,144%
same,AC50,[1],"23.1 µM [rising, single point]"
O=C(Nc1ncnc2sc3c(c12)CCCC3)c1ccncc1,cell number change,,58.4%
same,AC50,[2],"29.1 µM [rising, single point]"
same,AC50,[1],"29.1 µM [rising, single point]"
COc1ccccc1NC(=S)N1CCN(c2ccccc2F)CC1,cell number change,,10.9%
same,AC50,[1],"0.116 µM [rising, full curve, poor fit]"
Cc1ccccc1Cn1c(=N)n(CC(=O)c2ccc([N+](=O)[O-])cc2)c2ccccc21,cell number change,,-12.2%
same,AC50,[2],"0.461 µM [falling, single point]"
same,AC50,[1],"6.51 µM [falling, single point]"
Cn1c(SCC(=O)Nc2ccc(NC(=O)c3ccccc3F)cc2)nnc1-c1ccncc1,cell number change,,19.2%
O=[N+]([O-])c1cc(S(=O)(=O)N2CCCC2)ccc1O,cell number change,,101%
same,AC50,[2],"2.59 µM [rising, full curve]"
COc1cccc(OC)c1C(=O)N1CCN(c2ccccn2)CC1,cell number change,,16%
same,AC50,[2],"3.66 µM [rising, single point]"
same,AC50,[1],"5.17 µM [rising, single point]"
O=C(Nc1ccc(NC(=S)NC(=O)c2cccs2)cc1)c1ccco1,cell number change,,-35.6%
same,AC50,[2],"29.1 µM [falling, single point]"
same,AC50,[1],"29.1 µM [falling, single point]"
O=c1[nH]cnc2c1nc(SCc1ccccc1)n2C1OC(CO)C(O)C1O (stereo not drawn),cell number change,,0.553%
same,AC50,[1],"18.4 µM [falling, partial curve]"
CC1CN(C(=O)c2cc(S(=O)(=O)N3CCCC3)c(Cl)cc2Cl)CC(C)O1 (stereo not drawn),cell number change,,17.7%
same,AC50,[1],"0.146 µM [falling, full curve]"
CCC(Sc1nc(N)c(NC(=O)c2ccco2)c(=O)[nH]1)C(=O)O (stereo not drawn),AC50,[1],"20.6 µM [rising, partial curve]"
COc1ccccc1Oc1ccc2c(c1)C(=O)N(c1ccc(O)cc1)C2=O,cell number change,,-10.6%
same,AC50,[1],"29.1 µM [falling, single point]"
CCN(CC)S(=O)(=O)c1ccc(N2CCN(S(=O)(=O)c3ccccc3C#N)CC2)nc1,AC50,[2],"2.59 µM [rising, single point]"
CCN(C(=O)c1cc2c(=O)[nH]c3ccc(C)cc3c2s1)c1ccc(F)cc1,cell number change,,-5.27%
same,AC50,[1],"29.1 µM [falling, single point]"

# Pulled one by one from the entries so far:
smiles,measurement,setting,value
COc1cc(NC(=O)c2cccs2)c(OC)cc1NC(=O)Nc1ccc(F)cc1,cell number change,,-20.7%
O=C(O)CSc1ccccc1C(=O)O,AC50,[2],"14.6 µM [falling, partial curve, poor fit]"
COc1ccccc1Oc1ccc2c(c1)C(=O)N(c1ccc(O)cc1)C2=O,cell number change,,-10.6%

# Part of the list above, with bars between the fields.
smiles | measurement | setting | value
CCCCCCCC[n+]1cccc2c3ccccc3ccc21 | cell number change |  | -46.9%
same | AC50 | [2] | 5.17 µM [falling, full curve]
